Results reported in PMC7181751.
These are yes or no findings as the source states them, for the method shown. Binding seen in cells or lysates may run through a third protein. Some entries that bind do so weakly or less than the wild type. For some assays here: Sequences can lack the tags named with a protein.

Chains of the proteins cited; added tags and fusions are not shown. Residues count along the entry.
UniProt P56726, residues 33-793: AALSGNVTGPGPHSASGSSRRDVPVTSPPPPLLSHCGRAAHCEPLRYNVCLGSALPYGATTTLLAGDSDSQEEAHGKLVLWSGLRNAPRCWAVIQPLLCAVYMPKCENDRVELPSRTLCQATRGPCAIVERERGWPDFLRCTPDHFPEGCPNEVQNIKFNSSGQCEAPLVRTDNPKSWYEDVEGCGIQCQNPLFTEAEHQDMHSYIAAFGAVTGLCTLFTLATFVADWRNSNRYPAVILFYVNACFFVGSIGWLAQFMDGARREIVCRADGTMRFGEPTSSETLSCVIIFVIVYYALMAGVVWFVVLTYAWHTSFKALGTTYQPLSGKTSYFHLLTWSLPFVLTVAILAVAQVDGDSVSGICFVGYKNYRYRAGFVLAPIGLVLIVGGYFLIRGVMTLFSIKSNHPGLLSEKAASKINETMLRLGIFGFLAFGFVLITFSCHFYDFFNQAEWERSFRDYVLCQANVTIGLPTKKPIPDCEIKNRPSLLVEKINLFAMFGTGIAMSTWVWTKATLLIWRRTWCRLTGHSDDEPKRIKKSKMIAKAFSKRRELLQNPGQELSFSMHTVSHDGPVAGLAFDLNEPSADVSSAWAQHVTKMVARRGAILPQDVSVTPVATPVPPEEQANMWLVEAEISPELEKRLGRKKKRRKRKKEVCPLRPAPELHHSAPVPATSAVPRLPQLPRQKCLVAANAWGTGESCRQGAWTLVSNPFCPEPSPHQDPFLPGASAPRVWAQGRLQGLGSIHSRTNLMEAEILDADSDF

Key:
[1] = target: T1, mouse Ptch2, Myc-tagged (pCMV6-mPtch2-MycDDK) (mouse) (UniProt O35595); experiment: co-IP; NIH3T3/Cas9 Ptch1 KO cells transfected with Myc-tagged Ptch2, stimulated with Shh protein (200 ng/mL) in serum-free medium for 40 min; IP of Ptch2 and reciprocal IP with antibody against endogenous Gas1, Western blot
T1 sequence: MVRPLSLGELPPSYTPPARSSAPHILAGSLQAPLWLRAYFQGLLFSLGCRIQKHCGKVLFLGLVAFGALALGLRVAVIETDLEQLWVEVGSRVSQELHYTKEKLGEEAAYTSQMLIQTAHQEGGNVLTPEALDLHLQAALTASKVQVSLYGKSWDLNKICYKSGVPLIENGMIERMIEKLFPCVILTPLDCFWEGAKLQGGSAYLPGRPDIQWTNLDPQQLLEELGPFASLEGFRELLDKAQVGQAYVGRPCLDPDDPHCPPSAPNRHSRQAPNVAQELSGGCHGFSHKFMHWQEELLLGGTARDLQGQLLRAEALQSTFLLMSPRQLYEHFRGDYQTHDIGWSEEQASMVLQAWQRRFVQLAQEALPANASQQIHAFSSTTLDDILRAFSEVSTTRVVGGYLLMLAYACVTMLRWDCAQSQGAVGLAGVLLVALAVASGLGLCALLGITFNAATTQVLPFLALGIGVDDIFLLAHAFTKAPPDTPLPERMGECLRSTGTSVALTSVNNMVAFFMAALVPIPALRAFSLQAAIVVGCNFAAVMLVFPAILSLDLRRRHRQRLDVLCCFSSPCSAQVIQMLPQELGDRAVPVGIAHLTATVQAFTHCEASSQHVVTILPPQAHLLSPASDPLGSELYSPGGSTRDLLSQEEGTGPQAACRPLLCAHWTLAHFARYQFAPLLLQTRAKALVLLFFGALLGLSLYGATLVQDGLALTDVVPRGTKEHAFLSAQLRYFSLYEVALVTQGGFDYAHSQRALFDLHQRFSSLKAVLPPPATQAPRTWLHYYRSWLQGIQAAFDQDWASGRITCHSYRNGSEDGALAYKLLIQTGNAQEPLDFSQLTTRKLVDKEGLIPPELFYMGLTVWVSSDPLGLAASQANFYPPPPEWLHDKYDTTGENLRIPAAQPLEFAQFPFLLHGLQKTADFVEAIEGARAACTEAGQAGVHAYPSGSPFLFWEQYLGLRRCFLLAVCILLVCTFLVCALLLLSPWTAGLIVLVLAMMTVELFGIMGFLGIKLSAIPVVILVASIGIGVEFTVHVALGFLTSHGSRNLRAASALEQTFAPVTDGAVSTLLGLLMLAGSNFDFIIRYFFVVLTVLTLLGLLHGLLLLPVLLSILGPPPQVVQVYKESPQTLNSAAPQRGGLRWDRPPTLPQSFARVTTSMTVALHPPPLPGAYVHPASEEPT

[2] = target: T2, Gas1 (Growth arrest-specific gene 1), endogenous (mouse (endogenous in NIH3T3)) (UniProt Q01721); experiment: as above
T2 sequence: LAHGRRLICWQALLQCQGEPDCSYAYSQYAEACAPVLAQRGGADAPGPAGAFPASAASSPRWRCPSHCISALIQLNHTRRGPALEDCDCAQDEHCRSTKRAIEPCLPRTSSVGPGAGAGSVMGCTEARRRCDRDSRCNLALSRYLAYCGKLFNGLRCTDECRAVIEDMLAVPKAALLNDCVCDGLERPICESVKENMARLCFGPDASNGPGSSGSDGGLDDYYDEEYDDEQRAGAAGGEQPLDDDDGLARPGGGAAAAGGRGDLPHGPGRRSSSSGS

[3] = target: T1, mouse Ptch2, Myc-tagged (pCMV6-mPtch2-MycDDK) (mouse); experiment: co-IP; NIH3T3/Cas9 Ptch1 KO cells transfected with Myc-tagged Ptch2, unstimulated (no Shh); IP of Ptch2 and reciprocal IP with antibody against endogenous Gas1, Western blot; lysis in 50 mM HEPES, 150 mM NaCl, 10% glycerol, 1% Nonidet P-40, 1 mM EDTA; protein A/G-agarose
[4] = target: T2, Gas1 (Growth arrest-specific gene 1), endogenous (mouse (endogenous in NIH3T3)); experiment: as above
[5] = target: T1, mouse Ptch2, Myc-tagged (pCMV6-mPtch2-MycDDK) (mouse); experiment: co-IP; NIH3T3/Cas9 Gas1 KO cells transfected with Myc-tagged Ptch2, without and with Shh for 40 min; IP with anti-Myc antibody, Western blot

- binding [2]: no binding
- binding [3]: binds
- binding [4]: no binding
- binding [5]: binds
Substance: Smoothened (Smo), endogenous (from UniProt P56726 33-793) (receptor)
- binding [1]: no binding (condition: after Shh for 40 min)
